Source: PubChem BioAssay AID652259 (Drosophila RNAi Screening Center, 2013)

Purpose: 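Genome-wide hunt for genes that control Wingless pathway activity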 (primary screen)
Cells: Drosophila clone 8 imaginal disc epithelial cells
Knock-down reagent: long dsRNA against Drosophila genes
Treatment: pathway stimulated by co-transfected Wingless expression plasmid
Detection: 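Firefly luciferase from a tcf-site Wingless reporter, measured alongside co-transfected Renilla luciferase that tracks transfection; pathway stimulated by a Wingless plasmid; the firefly-to-Renilla ratio is not deposited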
Direction: firefly reporter light: higher = more Wg reporter light, before normalisation; Renilla control light: higher = more transfected or surviving cells
Rule for the call: 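Strong candidates differ from their plate mean by at least two out of four per-plate statistical tests; weak candidates meet just one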
Calls: active = candidate regulator (raises or lowers reporter); inactive = not a candidate
The deposit covers about 22,000 reagents; below is a random part of those that have a named target and a result. Of all reagents, 233 (1.1%) were called active. 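Light values are raw, unnormalised plate reads; the ratio scores behind the reporter calls were not deposited.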 Unmarked entries are inactive. Reagents against one gene are numbered here. Names joined by + are all predicted targets of the reagent. Not stated in the record: the amount of reagent, the time to read-out, the dose of the treatment.

Gene | reagent | reporter change call, replicate 1 | firefly reporter light, replicate 1 | firefly reporter light, replicate 2 | Renilla control light, replicate 1 | Renilla control light, replicate 2
Src64B (Src oncogene at 64B) | 1 | – | 1208 | 7360 | 1081 | 2951
Bdp1 (B double prime 1) | 1 | – | 10080 | – | 2708 | –
CG43102 | 1 | – | 5177 | – | 2294 | –
CG43102 | 2 | – | 22042 | 7.52e5 | 6677 | 3.76e5
CG43102 | 3 | – | 10108 | – | 2720 | –
CG7600 | 1 | – | 12688 | – | 4467 | –
Top3beta (Topoisomerase 3beta) | 1 | – | 3059 | 9616 | 1017 | 1872
CG12885 | 1 | – | 6668 | – | 2084 | –
Gmap (Golgi microtubule-associated protein) | 1 | – | 2612 | 13561 | 970 | 4104
Gmap (Golgi microtubule-associated protein) | 2 | – | 18081 | – | 8218 | –
CG11382 | 1 | – | 14613 | – | 9426 | –
Snx27 (Sorting nexin 27) | 1 | – | 26964 | – | 12589 | –
Snx27 (Sorting nexin 27) | 2 | – | 24965 | – | 9585 | –
Snx27 (Sorting nexin 27) | 3 | – | 16701 | – | 8672 | –
CG14219 | 1 | – | 18533 | – | 7353 | –
gkt + CR31953 | 1 | – | 8181 | – | 3920 | –
yellow-d | 1 | – | 3404 | 6332 | 800 | 3178
CG12581 | 1 | – | 9330 | – | 3802 | –
CG12581 | 2 | – | 16346 | – | 7273 | –
Gpat4 (Glycerol-3-phosphate acyltransferase 4) | 1 | – | 14869 | – | 4528 | –
CG9098 | 1 | – | 23264 | – | 10042 | –
CG9098 | 2 | – | 7.79e5 | 7.34e5 | 3.18e5 | 2.96e5
CG18661 | 1 | – | 3296 | 4515 | 952 | 2018
Phae1 (Phaedra 1) | 1 | – | 3360 | 10825 | 1800 | 4436
CG8952 | 1 | – | 2497 | 6076 | 880 | 2336
Prim2 (DNA primase subunit 2) | 1 | – | 2308 | – | 1418 | –
RanBPM (Ran-binding protein M) | 1 | – | 13411 | – | 2232 | –
CG30203 | 1 | – | 5046 | – | 2117 | –
CG18420 | 1 | – | 1718 | 6532 | 1157 | 3253
SoYb | 1 | – | 2219 | 6752 | 1147 | 3656
Naa20B (N(alpha)-acetyltransferase 20 B) | 1 | – | 4.47e5 | 3.93e5 | 2.46e5 | 1.68e5
clos (closca) | 1 | – | 3276 | 7755 | 1130 | 2746
clos (closca) | 2 | – | 4450 | 11155 | 1212 | 4141
clos (closca) | 3 | – | 2323 | 8247 | 867 | 2624
clos (closca) | 4 | – | 4.42e5 | 3.99e5 | 1.51e5 | 1.65e5
clos (closca) | 5 | – | 4.88e5 | 5.89e5 | 2.65e5 | 2.13e5
CG3638 | 1 | – | 17574 | – | 8764 | –
Ts (Thymidylate synthase) | 1 | – | 3872 | 8294 | 1195 | 2400
Ts (Thymidylate synthase) | 2 | – | 4.58e5 | 5.60e5 | 2.20e5 | 2.23e5
Spx (Spliceosomal protein on the X) | 1 | – | 16000 | – | 6472 | –
CG9143 | 1 | – | 9861 | – | 3179 | –
lncRNA:yar (yellow-achaete intergenic RNA) | 1 | – | 4336 | – | 2130 | –
lncRNA:yar (yellow-achaete intergenic RNA) | 2 | – | 8.42e5 | 8.73e5 | 4.31e5 | 4.01e5
Rab8 | 1 | – | 8709 | – | 3880 | –
CG5913 | 1 | – | 18456 | – | 18753 | –
CG12158 | 1 | – | 7.30e5 | 7.50e5 | 3.80e5 | 97638
drm (drumstick) | 1 | – | 2112 | 7701 | 1115 | 1291
fend (forked end) | 1 | – | 5579 | – | 1575 | –
fend (forked end) | 2 | – | 19190 | – | 16393 | –
CG7778 | 1 | – | 10055 | – | 4583 | –
LysS (Lysozyme S) | 1 | – | 2419 | – | 1738 | –
CG14252 | 1 | – | 6635 | – | 2461 | –
CG13838 | 1 | – | 28775 | – | 21725 | –
snRNP-U1-70K (small ribonucleoprotein particle U1 subunit 70K) | 1 | – | 3442 | 8725 | 1275 | 3216
snRNP-U1-70K (small ribonucleoprotein particle U1 subunit 70K) | 2 | – | 5.83e5 | 5.68e5 | 1.19e5 | 1.48e5
Elys | 1 | – | 1945 | 8501 | 697 | 2284
RhoGAP68F (Rho GTPase activating protein at 68F) | 1 | – | 2523 | – | 960 | –
CR12628 + Mgstl | 1 | – | 2008 | 3488 | 1013 | 1984
CR12628 + Mgstl | 2 | – | 24544 | – | 14875 | –
CG9154 | 1 | – | 7728 | – | 3899 | –
Cnot4 (CCR4-NOT transcription complex subunit 4) | 1 | – | 3866 | 6563 | 1248 | 2608
Cnot4 (CCR4-NOT transcription complex subunit 4) | 2 | – | 4429 | 9917 | 870 | 1825
CG42342 | 1 | – | 2937 | – | 1760 | –
CG42342 | 2 | Wg reporter activity raised (active) | 3639 | – | 331 | –
CG42342 | 3 | – | 21770 | – | 6820 | –
CG42342 | 4 | – | 16901 | – | 4700 | –
CG42342 | 5 | – | 15206 | – | 4588 | –
CG42342 | 6 | – | 4.99e5 | 4.66e5 | 1.66e5 | 1.18e5
CG42342 | 7 | – | 4.87e5 | 4.69e5 | 2.06e5 | 2.46e5
Larp4B (La-related protein 4B) | 1 | Wg reporter activity raised | 5412 | – | 1275 | –
Gle1 (Gle1 RNA export mediator) | 1 | – | 9899 | – | 2633 | –
Rbf2 (Retinoblastoma-family protein 2) | 1 | – | 19338 | – | 4730 | –
CG13995 | 1 | – | 25505 | – | 11792 | –
CG13995 | 2 | – | 5160 | 7632 | 976 | 2785
CG13995 | 3 | – | 6.60e5 | 8.52e5 | 2.75e5 | 3.62e5

Taken from above:
Value for CG42342 #6 in “Renilla control light, replicate 1”: 1.66e5
Entry for Elys under “firefly reporter light, replicate 1”: 1945
Gmap (Golgi microtubule-associated protein) #1, Renilla control light, replicate 1 → 970
Under “Renilla control light, replicate 1”, CG30203 reads 2117
fend (forked end) #1, firefly reporter light, replicate 1 = 5579
Value of clos (closca) #1 in “Renilla control light, replicate 1”: 1130
